Test: general procedure: Boc solid-phase peptide synthesis; 4-methylbenzhydrylamine resin (0.72 meq/g or 0.44 meq/g); HOBT-NMP protocol (NMP/DMSO/DIEA solvent system)
Conditions: whole synthesis, capillary electrophoresis, scale of the general procedure 0.5 mmol; for final HPLC purity: analytical RP-HPLC

Substance	final HPLC purity	final purity (method not given)	final HPLC purity (run 1)
^29 Pro-Human Amylin	93%	91.4%	–
^23 Leu-Human Amylin	–	96.1%	–
Human Amylin (KCNTATCATQRLANFLVHSSNNFGAILSSTNVGSNTY; Islet amyloid polypeptide C-terminal amide; UniProt P10997 34-70, looked up)	–	92.3%	>95%

Reference: patent publication US5424394A (priority 1993, dated 1995)
